Results from publication PMC10244405.
Results are given in words; binding and its absence hold for the method and conditions named. Binding seen in cells or lysates may run through a third protein. Some entries that bind do so weakly or less than the wild type.

Biological target: T1, AGE receptor 1 (human (endogenous in LO2)) (UniProt P39656)
T1 sequence: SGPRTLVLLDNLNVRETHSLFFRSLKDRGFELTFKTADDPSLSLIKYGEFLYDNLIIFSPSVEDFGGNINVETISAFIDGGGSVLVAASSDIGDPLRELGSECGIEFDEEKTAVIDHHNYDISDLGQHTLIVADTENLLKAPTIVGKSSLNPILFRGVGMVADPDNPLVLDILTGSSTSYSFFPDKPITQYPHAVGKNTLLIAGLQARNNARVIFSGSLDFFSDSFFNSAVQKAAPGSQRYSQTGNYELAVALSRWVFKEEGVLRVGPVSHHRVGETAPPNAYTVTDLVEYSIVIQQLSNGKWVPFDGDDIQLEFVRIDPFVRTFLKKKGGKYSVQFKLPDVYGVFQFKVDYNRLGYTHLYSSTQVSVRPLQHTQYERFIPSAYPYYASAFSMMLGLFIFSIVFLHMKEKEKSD
Test: co-IP; antibody against AGER1 (or rabbit IgG) on Protein A/G magnetic beads; lysate of LO2 cells incubated with PA and high glucose, RIPA buffer with PMSF and protease inhibitors; rotation overnight at 4 °C; SDS-PAGE and immunoblotting

B1: sirtuin 4 (protein, UniProt Q9Y6E7 29-314)
chain: IGLFVPASPPLDPEKVKELQRFITLSKRLLVMTGAGISTESGIPDYRSEKVGLYARTDRRPIQHGDFVRSAPIRQRYWARNFVGWPQFSSHQPNPAHWALSTWEKLGKLYWLVTQNVDALHTKAGSRRLTELHGCMDRVLCLDCGEQTPRGVLQERFQVLNPTWSAEAHGLAPDGDVFLSEEQVRSFQVPTCVQCGGHLKPDVVFFGDTVNPDKVDFVHKRVKEADSLLVVGSSLQVYSGYRFILTAWEKKLPIAILNIGPTRSDDLACLKLNSRCGELLPLIDPC
For B1, the binding was “binds”.
